± gives the standard deviation of the averaged measurements. The list shows a part of the results, in another mix than the full data. Most values lie at the level of the controls, where differences are scatter.
Compound: Nc1ncnc2c1ncn2[C@@H]1O[C@H](COP(=O)(O)OP(=O)(O)NP(=O)(O)O)[C@@H](O)[C@H]1O [adenylyl imidodiphosphate]
Assay: NP40-soluble protein abundance relative to vehicle (solubility fold change) (ratio); higher = more soluble protein in presence of AMP-PNP
In short: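 Eight concentrations, 0.1 to 10 mM, were tested on Jurkat crude lysate for 10 min at room temperature and then 3 min at 37 °C, in three independent experiments. The lysate was solubilised with 0.8% NP40 and benzonase, ultracentrifuged, and the supernatant TMT-labelled for LC-MS/MS. Each value is the fold change against the detergent-processed vehicle in its own replicate, from vsn-normalised intensities.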

The chains behind the UniProt entries cited, without tags or fusion partners. Where a name states a change or a piece, a line headed by the entry shows the natural chain unless it says otherwise.
UniProt P68036, whole entry: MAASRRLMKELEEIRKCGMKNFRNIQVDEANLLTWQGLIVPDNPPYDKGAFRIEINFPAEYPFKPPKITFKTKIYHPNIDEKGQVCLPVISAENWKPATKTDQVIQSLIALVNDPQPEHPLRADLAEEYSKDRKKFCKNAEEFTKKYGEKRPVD
UniProt P68371, whole entry: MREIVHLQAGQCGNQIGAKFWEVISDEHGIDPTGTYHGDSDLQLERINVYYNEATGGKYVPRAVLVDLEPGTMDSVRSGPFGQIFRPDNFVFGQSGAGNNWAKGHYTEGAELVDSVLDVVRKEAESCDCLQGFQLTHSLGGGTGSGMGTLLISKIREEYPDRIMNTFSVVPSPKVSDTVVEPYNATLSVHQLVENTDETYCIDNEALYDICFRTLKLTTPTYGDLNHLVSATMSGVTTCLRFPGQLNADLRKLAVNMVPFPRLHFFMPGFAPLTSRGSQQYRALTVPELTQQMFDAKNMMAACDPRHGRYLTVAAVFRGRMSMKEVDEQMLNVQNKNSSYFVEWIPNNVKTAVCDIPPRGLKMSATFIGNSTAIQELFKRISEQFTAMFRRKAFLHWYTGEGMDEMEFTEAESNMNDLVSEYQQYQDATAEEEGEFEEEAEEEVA
UniProt P61604, whole entry: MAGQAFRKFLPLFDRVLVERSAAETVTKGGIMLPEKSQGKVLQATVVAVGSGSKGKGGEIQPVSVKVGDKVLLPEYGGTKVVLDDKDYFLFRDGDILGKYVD
UniProt P56181: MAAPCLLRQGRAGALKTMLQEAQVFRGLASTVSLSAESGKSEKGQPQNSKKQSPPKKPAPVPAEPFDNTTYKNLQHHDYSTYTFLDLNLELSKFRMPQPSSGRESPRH
UniProt P62879, whole entry: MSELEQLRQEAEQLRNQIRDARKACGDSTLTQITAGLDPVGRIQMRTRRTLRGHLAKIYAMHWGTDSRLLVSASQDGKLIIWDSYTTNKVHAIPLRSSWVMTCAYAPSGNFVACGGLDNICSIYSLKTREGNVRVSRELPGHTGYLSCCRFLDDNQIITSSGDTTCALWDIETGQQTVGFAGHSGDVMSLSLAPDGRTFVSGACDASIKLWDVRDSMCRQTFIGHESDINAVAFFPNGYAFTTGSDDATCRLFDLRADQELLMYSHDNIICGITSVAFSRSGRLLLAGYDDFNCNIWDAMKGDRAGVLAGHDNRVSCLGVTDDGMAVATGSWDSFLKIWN
UniProt P78344: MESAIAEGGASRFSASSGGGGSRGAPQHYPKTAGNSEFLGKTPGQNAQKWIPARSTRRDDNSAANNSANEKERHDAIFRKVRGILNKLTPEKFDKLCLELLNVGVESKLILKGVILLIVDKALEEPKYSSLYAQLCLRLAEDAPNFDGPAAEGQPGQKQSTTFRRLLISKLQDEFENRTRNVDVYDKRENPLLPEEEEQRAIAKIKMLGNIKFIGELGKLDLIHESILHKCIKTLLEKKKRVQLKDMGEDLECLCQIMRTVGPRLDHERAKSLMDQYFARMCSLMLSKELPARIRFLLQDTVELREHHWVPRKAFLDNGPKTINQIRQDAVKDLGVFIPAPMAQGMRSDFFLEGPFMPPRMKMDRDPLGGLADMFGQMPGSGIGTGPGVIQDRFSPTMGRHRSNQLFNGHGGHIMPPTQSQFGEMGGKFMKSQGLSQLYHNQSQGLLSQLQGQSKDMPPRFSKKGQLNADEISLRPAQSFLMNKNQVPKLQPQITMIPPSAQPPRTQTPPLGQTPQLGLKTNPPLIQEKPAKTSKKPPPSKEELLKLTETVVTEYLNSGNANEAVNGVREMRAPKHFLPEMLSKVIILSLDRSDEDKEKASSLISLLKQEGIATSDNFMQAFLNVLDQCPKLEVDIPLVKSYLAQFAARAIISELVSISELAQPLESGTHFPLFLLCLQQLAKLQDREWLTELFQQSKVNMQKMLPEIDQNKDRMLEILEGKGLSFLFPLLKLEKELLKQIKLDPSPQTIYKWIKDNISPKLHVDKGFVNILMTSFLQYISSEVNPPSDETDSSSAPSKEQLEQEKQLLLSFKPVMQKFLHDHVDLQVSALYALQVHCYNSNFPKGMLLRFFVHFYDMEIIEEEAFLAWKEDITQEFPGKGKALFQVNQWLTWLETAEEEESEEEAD
UniProt Q07960: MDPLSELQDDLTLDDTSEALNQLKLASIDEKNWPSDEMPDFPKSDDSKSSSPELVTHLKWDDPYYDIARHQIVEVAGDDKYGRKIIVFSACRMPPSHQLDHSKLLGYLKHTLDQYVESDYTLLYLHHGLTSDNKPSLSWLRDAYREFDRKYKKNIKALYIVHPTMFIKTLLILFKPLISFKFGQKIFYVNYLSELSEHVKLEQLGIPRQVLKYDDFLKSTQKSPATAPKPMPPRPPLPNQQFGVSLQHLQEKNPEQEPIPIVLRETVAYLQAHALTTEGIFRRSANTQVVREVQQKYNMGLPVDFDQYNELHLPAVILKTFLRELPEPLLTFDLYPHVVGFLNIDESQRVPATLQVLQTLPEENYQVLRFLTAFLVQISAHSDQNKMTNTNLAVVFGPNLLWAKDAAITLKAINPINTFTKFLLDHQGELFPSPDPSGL
UniProt P78332: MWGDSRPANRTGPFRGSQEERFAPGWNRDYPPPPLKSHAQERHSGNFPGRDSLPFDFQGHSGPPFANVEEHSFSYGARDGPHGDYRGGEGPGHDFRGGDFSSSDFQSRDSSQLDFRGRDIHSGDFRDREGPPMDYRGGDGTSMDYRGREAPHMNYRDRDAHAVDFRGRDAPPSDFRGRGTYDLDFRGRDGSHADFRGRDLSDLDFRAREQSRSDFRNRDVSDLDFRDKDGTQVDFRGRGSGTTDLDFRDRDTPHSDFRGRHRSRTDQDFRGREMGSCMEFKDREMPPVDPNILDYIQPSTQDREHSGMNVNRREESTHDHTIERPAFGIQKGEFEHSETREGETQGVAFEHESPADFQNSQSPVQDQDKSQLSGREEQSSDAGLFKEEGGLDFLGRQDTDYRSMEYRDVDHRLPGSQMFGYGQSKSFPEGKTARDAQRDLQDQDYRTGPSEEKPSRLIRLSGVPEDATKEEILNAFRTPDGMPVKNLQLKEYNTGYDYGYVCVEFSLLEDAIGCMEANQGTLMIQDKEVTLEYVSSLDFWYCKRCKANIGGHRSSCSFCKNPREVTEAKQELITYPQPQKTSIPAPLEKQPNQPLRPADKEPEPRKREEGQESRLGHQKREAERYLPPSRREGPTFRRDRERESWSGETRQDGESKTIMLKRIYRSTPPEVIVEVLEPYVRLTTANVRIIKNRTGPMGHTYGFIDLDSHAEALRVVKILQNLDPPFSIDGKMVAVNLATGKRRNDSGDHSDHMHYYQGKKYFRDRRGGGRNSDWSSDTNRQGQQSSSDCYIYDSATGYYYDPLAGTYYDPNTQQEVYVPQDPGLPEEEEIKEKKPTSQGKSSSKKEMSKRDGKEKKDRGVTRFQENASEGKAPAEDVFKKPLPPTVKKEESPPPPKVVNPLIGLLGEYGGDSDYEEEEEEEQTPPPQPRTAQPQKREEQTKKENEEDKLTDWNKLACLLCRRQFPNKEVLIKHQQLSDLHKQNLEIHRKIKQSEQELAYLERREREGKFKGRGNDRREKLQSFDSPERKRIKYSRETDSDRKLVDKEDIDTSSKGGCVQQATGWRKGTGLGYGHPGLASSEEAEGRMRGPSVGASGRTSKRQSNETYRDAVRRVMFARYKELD
UniProt P56199, whole entry: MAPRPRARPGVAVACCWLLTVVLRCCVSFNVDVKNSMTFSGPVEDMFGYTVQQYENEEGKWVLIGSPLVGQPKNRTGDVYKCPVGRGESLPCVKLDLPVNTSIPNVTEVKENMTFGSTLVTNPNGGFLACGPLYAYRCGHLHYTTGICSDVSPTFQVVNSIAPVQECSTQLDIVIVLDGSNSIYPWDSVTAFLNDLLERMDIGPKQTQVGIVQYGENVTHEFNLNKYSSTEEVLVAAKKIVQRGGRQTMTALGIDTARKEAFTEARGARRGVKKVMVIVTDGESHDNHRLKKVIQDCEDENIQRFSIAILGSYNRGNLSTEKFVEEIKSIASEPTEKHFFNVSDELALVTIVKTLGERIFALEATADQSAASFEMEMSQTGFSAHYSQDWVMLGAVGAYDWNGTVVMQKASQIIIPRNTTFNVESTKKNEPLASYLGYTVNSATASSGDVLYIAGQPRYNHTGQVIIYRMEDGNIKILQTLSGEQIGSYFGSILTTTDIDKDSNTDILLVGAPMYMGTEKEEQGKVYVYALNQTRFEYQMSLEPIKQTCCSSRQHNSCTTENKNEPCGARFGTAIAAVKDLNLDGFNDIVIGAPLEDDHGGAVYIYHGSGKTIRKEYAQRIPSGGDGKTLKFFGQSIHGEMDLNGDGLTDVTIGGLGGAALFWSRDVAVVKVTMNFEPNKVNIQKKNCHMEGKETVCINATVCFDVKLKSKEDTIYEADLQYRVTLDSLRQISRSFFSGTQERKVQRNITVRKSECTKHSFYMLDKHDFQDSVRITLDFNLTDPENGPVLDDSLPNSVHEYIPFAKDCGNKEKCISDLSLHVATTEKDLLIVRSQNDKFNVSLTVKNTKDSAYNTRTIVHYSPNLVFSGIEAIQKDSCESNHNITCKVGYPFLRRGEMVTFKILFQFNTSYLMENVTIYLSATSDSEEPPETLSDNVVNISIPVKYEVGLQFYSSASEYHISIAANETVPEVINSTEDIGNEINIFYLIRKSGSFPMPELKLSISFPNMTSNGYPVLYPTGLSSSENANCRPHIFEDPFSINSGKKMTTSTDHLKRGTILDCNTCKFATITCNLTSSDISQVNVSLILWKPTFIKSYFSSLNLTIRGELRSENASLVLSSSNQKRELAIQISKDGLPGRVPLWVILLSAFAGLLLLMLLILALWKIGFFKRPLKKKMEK
UniProt P61966: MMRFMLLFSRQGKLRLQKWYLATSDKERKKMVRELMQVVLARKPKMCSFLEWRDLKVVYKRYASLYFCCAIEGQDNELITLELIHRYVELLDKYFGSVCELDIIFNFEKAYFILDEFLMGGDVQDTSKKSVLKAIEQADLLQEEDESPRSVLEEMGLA
UniProt Q00535, whole entry, looked up: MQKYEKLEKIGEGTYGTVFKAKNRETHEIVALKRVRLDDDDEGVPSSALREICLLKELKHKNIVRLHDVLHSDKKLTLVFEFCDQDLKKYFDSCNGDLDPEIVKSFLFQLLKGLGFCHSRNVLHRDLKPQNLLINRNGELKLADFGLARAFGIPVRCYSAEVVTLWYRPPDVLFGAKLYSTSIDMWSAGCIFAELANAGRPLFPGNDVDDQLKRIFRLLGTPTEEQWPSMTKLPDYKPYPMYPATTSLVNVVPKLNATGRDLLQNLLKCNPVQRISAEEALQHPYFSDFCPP
UniProt P55771: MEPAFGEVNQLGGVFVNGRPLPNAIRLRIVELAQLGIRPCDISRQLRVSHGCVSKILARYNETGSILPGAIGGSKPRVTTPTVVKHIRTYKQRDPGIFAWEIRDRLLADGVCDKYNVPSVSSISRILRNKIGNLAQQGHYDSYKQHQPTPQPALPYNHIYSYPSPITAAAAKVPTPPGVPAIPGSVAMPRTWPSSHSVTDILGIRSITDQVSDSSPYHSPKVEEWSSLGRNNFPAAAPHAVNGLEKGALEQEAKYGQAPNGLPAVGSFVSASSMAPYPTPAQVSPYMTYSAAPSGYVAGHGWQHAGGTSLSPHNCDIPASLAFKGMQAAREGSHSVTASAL
UniProt P86790: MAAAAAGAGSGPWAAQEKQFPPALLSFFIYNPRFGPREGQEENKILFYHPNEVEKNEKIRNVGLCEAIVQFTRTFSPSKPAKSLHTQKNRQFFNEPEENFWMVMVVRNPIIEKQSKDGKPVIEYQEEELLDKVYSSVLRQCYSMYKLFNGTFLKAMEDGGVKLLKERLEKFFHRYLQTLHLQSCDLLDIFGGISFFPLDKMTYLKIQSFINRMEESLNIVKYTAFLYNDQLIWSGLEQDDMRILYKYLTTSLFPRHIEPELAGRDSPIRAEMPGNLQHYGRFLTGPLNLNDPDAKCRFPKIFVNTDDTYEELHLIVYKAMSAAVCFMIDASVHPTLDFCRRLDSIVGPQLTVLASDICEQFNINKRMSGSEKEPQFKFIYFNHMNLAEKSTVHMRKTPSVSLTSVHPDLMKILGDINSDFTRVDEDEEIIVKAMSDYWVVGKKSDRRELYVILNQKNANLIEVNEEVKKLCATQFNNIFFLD
UniProt P86791: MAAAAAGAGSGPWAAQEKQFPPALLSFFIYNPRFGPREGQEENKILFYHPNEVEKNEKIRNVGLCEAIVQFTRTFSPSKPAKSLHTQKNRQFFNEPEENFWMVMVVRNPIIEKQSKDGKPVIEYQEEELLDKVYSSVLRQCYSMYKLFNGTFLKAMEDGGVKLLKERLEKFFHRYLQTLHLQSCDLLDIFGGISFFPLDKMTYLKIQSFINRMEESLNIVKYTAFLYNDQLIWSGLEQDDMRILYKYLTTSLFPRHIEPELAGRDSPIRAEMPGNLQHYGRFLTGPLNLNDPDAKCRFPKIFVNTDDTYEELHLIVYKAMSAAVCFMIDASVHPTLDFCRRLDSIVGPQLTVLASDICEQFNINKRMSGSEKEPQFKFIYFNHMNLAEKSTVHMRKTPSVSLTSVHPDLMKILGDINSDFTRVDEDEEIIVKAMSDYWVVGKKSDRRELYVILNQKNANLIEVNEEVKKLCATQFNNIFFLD

Target	NP40-soluble protein abundance (concentration: 0.1mM)	NP40-soluble protein abundance (concentration: 0.5mM)
UniProt Q05397 and related entries	1.02 ± 0.049	0.969 ± 0.018
UniProt P68036 and related entries	1 ± 0.046	1.06 ± 0.071
UniProt P68371	1.08 ± 0.16	0.991 ± 0.053
UniProt Q04656 and related entries	0.99 ± 0.016	0.976 ± 0.022
UniProt P61604 and related entries	0.878 ± 0.086	0.979 ± 0.13
UniProt P56181 and related entries	0.973 ± 0.021	1.02 ± 0.081
MRPS5 (UniProt P82675)	1.03 ± 0.023	0.979 ± 0.071
UniProt P62879	0.9877 ± 0.0049	0.991 ± 0.059
EIF4G2 (UniProt P78344)	1.01 ± 0.018	1.02 ± 0.015
ARHGAP1 (UniProt Q07960)	0.97 ± 0.039	0.979 ± 0.018
UniProt P78332 and related entries	1.02 ± 0.037	1.03 ± 0.036
ITGA1 (UniProt P56199)	1.01 ± 0.023	1.01 ± 0.021
EIF6 (UniProt P56537)	1.01 ± 0.049	0.985 ± 0.032
UniProt P60866 and related entries	1 ± 0.069	1.02 ± 0.041
UniProt P61160	1.027 ± 0.0092	1.03 ± 0.016
UniProt P61966	1.02 ± 0.036	1.04 ± 0.036
CDK5 (UniProt Q00535)	0.976 ± 0.033	0.975 ± 0.036
UniProt Q00978 and related entries	1.02 ± 0.018	0.995 ± 0.027
UniProt P62805	1.03 ± 0.11	0.973 ± 0.099
UniProt P55771	0.979 ± 0.016	0.9598 ± 0.0095
P86790 and related entries (UniProt P86791+P86790)	1.02 ± 0.018	0.973 ± 0.043
UniProt P98095 and related entries	0.996 ± 0.022	1.02 ± 0.045

Random excerpt: 2 entries already listed
Target	NP40-soluble protein abundance (concentration: 0.1mM)	NP40-soluble protein abundance (concentration: 0.5mM)
ARHGAP1 (UniProt Q07960)	0.97 ± 0.039	0.979 ± 0.018
UniProt Q05397 and related entries	1.02 ± 0.049	0.969 ± 0.018

— the supplement of paper PMC6411743
